Experimental data: PubChem BioAssay AID602196 (INSERM, 2012)
The whole screen tested about 23,000 reagents; below is a random part of them. Of all reagents, 455 (2%) got an active call. 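Active includes both protection and sensitisation; some change values fall well beyond the stated -50 to +50 range.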 Entries without a mark were called inactive. No sequences are given here. The record does not give: the amount of reagent.

- Aim: 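Modifiers of cisplatin sensitivity in A549 cells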
- System: human A549 lung cancer cells
- Knock-down reagent: siRNA pair against human genes
- Duration: 48 h transfection before cisplatin; time from cisplatin to read-out not stated
- Conditions: cisplatin at a dose killing half of control-siRNA cells; exact dose and duration not given
- Detection: 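Shift in cisplatin death relative to control siRNA, from -50 (all cells die) to +50 (no cells die); siRNAs harmful on their own scored 0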
- Scale: two-siRNA summed score (-2 to +2): higher = both siRNAs protect from cisplatin killing; -2 means both sensitise; mean protection from cisplatin (shift in death) and protection from cisplatin (shift in death), siRNA C and protection from cisplatin (shift in death), siRNA D: higher = protection from cisplatin killing
- Rule for the call: 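Each siRNA scores 0 if harmful alone by LDH or WST-1, otherwise +1 if it reduces and -1 if it increases cisplatin killing; a gene is active when both siRNAs agree (sum +2 or -2)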
- Calls: active = both siRNAs shift cisplatin killing the same way; inactive = no consistent shift, or siRNA harmful alone

The opening 5 records as a preview:
| gene symbol | two-siRNA summed score (-2 to +2) | mean protection from cisplatin (shift in death) (%) | protection from cisplatin (shift in death), siRNA C (%) | protection from cisplatin (shift in death), siRNA D (%) |
| --- | --- | --- | --- | --- |
| BCAP31 | 0 | -3.5 | 23.2 | -30.1 |
| NBPF15 | 0 | -5.2 | -19.8 | 9.5 |
| AIRIM | 0 | 2.1 | -0.5 | 4.6 |
| RHOH | -1 | -0.5 | 10.4 | -11.5 |
| TIGD3 | 1 | 7.7 | -2 | 17.5 |

The listing, from the start:
| gene symbol | two-siRNA summed score (-2 to +2) | mean protection from cisplatin (shift in death) (%) | protection from cisplatin (shift in death), siRNA C (%) | protection from cisplatin (shift in death), siRNA D (%) |
| --- | --- | --- | --- | --- |
| BCAP31 | 0 | -3.5 | 23.2 | -30.1 |
| NBPF15 | 0 | -5.2 | -19.8 | 9.5 |
| AIRIM | 0 | 2.1 | -0.5 | 4.6 |
| RHOH | -1 | -0.5 | 10.4 | -11.5 |
| TIGD3 | 1 | 7.7 | -2 | 17.5 |
| MPHOSPH6 | 1 | 10.3 | 6.9 | 13.7 |
| PHPT1 | -1 | -6.7 | 27.4 | -40.7 |
| GUCY1A1 | -1 | -10.2 | -7.7 | -12.7 |
| LOC441014 | 0 | 11.9 | 6.9 | 16.9 |
| LOC23117 | 0 | 12.4 | 8.4 | 16.3 |
| MT1P3 | 0 | 27.4 | 46.3 | 8.5 |
| MACROD1 | 0 | 7.5 | 5.2 | 9.8 |
| LOC442530 | 0 | 0.8 | -6 | 7.5 |
| DKK3 | 0 | -5.3 | 8.3 | -18.9 |
| ITGA2 | 0 | 8.8 | 29.5 | -11.9 |
| MSL3 | 0 | -7.2 | -11.8 | -2.6 |
| TAOK1 | 1 | 10.9 | 30 | -8.2 |
| PKDREJ | 0 | -14.5 | -3.6 | -25.4 |
| LINC02694 | 0 | 10.5 | 15.6 | 5.4 |
| POC5-DT | 0 | 4.4 | 3.9 | 4.8 |
| LRP6 | -1 | -21.2 | 5.1 | -47.5 |
| GNAO1 | 1 | 7.4 | 22 | -7.2 |
| TMEM141 | 0 | 0.1 | 4.1 | -3.8 |
| THBS2 | 0 | 8.6 | 8.6 | 8.5 |
| LAX1 | 1 | 13.2 | 5.8 | 20.6 |
| MLEC | 1 | 9.4 | -1.7 | 20.6 |
| SLC6A18 | 1 | 4.5 | 19.8 | -10.8 |
| POU2AF2 | 1 | 15.3 | 29.1 | 1.5 |
| ECI2 | 1 | 11.8 | 2.9 | 20.8 |
| AGAP1 | 0 | 6 | -2.4 | 14.3 |
| KCTD17 | 0 | 5.4 | 3.1 | 7.8 |
| NKX6-3 | 0 | -9.6 | -18.5 | -0.6 |
| MSH4 | 0 | -11.4 | -19.9 | -2.9 |
| MDN1 | 0 | -1.9 | 5.8 | -9.6 |
| LOC222701 | 0 | 14.9 | 28.8 | 1.1 |
| MTMR11 | 0 | -2 | -7.6 | 3.5 |
| SGF29 | 1 | 13 | -0.2 | 26.3 |
| CIMAP1D | 0 | 6.9 | -0.7 | 14.5 |
| TMEM163 | 0 | -4.7 | -6 | -3.3 |
| NAPRT | 0 | -5.1 | 1.2 | -11.4 |
| LOC201175 | 0 | 10.4 | 9.7 | 11.1 |
| MRPS25 | 0 | 2.5 | -7 | 12 |
| LOC283259 | 0 | 23.2 | 30.9 | 15.5 |
| OR13F1 | 0 | 15.5 | 6.6 | 24.4 |
| LAMA5 | 0 | 2.2 | 8.1 | -3.8 |
| LOC164036 | 0 | 7.9 | 10.2 | 5.7 |
| PTPN22 | 0 | 11 | 8.6 | 13.4 |
| LOC442130 | 1 | 10.2 | 27.7 | -7.3 |
| ATAD5 | -1 | -4.3 | 7.5 | -16 |
| GTF2A1 | 1 | 14.2 | 24.6 | 3.8 |
| OR2F2 | 0 | -4.9 | -0.8 | -9.1 |
| GNE | 1 | 15.9 | 23 | 8.7 |
| BNIP2 | 1 | 1.7 | -11 | 14.3 |
| LOC402214 | 0 | 7.2 | 9 | 5.3 |
| CFH | 0 | 2.3 | 10.4 | -5.7 |
| MRPS6 | 0 | 4.1 | 0.8 | 7.4 |
| SEC23IP | 2 (active) | 14.7 | 7.9 | 21.6 |
